Laboratory results from the supplement of paper PMC12823440, “Inhibitors supercharge kinase turnover through native proteolytic circuits” (Nature, 2025).
Counter-ions that a name gives are not always drawn. This is one part of the list. Hit calls seldom repeat between salt and free forms of one compound.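 Kinases, fused to nanoluciferase, were expressed in K562 cells; luminescence was measured every 4 h from 2 to 18 h as percent of control (DMSO = 100%, positive control = 0%). A time point is decreased if signal falls significantly (2 sigma). Hits were called by the authors by a rule that is not shown; the count of time points alone does not decide it.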

By UniProt entry, the sequences of proteins in these tests, tags left out. Where a name states a change or a piece, a line headed by the entry shows the natural chain unless it says otherwise.
UniProt P48729: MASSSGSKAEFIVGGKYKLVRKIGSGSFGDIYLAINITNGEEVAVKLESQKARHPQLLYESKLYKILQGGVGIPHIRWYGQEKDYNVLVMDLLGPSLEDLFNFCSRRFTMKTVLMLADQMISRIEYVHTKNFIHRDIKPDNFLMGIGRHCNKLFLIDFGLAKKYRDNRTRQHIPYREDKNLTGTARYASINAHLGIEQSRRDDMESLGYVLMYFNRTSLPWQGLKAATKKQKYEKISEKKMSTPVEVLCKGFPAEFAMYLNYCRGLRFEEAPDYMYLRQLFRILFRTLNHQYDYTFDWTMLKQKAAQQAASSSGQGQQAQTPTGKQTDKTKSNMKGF
UniProt P48730: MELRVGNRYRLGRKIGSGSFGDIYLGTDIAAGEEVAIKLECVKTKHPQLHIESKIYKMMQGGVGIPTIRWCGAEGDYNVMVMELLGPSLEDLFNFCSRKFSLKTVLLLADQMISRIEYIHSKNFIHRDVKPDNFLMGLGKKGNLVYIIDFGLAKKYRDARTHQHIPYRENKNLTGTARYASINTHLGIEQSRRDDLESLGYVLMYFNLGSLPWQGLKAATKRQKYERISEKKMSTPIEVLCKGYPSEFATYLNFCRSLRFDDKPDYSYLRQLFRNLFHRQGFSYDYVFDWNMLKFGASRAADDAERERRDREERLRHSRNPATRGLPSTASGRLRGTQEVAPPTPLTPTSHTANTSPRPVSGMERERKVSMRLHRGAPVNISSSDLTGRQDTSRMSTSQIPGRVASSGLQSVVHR
UniProt Q92630: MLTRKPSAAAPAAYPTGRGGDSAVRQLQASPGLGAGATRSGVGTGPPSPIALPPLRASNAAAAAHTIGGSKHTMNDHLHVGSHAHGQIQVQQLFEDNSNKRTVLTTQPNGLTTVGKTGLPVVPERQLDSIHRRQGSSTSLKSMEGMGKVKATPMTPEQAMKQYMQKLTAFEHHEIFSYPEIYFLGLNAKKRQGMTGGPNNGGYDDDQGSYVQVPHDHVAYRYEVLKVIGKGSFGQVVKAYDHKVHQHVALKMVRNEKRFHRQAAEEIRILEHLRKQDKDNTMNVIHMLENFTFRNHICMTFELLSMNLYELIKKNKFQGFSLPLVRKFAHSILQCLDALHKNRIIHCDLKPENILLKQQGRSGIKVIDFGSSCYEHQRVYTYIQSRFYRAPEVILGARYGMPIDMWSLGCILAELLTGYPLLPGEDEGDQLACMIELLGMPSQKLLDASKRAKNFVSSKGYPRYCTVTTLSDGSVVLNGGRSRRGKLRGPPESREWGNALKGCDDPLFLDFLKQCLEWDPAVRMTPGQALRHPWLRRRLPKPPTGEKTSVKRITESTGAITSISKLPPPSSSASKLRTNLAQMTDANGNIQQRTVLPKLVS
UniProt P29317, whole entry: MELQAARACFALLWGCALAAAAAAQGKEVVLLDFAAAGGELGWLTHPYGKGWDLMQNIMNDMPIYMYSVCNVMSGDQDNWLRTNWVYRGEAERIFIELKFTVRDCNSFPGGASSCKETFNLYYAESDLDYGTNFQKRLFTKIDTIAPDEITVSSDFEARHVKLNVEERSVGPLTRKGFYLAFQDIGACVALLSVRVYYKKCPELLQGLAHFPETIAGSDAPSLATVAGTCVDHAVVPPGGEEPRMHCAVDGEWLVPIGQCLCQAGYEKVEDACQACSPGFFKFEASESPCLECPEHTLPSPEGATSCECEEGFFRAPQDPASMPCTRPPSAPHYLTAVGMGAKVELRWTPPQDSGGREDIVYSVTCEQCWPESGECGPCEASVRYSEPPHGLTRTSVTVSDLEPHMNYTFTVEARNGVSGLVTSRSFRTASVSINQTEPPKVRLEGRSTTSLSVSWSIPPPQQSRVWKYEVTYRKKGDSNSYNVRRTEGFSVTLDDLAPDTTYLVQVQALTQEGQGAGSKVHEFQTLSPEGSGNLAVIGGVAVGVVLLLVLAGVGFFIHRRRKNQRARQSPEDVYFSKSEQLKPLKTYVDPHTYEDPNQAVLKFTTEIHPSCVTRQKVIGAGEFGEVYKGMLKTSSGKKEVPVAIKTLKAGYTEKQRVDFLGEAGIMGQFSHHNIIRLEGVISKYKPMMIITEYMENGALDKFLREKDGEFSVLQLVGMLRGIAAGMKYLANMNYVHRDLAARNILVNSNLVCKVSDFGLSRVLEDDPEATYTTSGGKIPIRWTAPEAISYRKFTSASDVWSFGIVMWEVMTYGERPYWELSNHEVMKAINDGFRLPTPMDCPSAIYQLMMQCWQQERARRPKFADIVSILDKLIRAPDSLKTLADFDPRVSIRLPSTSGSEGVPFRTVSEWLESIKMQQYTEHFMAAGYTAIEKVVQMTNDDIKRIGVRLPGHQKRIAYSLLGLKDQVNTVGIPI
UniProt P21860, whole entry: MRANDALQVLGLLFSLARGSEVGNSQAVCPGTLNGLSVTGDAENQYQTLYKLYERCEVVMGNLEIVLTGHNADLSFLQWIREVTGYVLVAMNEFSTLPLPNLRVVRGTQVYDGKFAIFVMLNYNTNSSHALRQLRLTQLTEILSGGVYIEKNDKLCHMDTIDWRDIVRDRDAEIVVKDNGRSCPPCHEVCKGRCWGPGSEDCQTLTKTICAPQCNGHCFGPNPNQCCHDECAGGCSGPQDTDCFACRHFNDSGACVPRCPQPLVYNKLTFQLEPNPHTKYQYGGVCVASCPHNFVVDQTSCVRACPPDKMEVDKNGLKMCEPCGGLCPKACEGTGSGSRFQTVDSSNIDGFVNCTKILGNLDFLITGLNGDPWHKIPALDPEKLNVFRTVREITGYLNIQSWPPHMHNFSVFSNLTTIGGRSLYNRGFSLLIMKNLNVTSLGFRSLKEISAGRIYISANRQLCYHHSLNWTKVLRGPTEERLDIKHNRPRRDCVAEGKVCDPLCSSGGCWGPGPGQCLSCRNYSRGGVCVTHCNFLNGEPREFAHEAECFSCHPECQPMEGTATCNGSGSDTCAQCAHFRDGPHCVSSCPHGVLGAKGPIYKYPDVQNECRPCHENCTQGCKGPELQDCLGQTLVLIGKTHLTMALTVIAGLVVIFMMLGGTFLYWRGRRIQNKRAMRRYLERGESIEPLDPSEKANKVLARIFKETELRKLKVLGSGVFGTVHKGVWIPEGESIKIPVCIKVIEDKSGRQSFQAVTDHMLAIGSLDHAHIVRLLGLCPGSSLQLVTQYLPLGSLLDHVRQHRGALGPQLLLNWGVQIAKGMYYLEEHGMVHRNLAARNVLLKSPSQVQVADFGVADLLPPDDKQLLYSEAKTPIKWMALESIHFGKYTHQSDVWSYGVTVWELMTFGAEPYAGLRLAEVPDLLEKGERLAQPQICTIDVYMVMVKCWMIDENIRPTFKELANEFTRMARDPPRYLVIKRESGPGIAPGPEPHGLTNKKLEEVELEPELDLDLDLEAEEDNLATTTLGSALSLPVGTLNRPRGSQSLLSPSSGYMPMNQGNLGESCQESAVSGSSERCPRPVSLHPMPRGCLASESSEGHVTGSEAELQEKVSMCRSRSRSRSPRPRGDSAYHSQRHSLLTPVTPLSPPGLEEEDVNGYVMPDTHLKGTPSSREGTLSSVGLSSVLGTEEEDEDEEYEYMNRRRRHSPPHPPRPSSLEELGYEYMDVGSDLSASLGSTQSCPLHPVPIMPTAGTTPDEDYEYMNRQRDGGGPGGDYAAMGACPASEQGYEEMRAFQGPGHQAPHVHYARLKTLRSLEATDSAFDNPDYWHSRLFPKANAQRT
UniProt P11362, whole entry, looked up: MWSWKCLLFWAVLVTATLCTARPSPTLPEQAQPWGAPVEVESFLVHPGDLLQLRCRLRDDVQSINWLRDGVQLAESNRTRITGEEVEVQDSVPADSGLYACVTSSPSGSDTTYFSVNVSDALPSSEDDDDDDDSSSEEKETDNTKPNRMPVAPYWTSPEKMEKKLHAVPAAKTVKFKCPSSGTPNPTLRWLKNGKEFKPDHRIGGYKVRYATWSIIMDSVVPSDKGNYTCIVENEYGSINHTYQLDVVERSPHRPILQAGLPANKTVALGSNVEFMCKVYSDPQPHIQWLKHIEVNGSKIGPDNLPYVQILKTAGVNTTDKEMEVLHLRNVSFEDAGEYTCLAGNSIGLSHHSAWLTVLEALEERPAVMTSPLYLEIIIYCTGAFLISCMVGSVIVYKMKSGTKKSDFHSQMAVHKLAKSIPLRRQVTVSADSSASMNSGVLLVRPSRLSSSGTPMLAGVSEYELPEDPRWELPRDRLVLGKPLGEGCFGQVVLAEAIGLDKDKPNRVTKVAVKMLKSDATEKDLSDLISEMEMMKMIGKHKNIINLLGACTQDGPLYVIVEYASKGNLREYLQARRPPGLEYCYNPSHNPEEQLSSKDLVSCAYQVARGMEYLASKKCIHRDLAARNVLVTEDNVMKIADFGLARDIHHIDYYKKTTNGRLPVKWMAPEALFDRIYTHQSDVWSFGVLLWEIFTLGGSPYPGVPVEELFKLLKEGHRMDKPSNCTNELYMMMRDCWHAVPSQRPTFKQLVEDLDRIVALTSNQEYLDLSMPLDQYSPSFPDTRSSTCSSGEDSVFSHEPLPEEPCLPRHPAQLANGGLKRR
UniProt P21802, whole entry, looked up: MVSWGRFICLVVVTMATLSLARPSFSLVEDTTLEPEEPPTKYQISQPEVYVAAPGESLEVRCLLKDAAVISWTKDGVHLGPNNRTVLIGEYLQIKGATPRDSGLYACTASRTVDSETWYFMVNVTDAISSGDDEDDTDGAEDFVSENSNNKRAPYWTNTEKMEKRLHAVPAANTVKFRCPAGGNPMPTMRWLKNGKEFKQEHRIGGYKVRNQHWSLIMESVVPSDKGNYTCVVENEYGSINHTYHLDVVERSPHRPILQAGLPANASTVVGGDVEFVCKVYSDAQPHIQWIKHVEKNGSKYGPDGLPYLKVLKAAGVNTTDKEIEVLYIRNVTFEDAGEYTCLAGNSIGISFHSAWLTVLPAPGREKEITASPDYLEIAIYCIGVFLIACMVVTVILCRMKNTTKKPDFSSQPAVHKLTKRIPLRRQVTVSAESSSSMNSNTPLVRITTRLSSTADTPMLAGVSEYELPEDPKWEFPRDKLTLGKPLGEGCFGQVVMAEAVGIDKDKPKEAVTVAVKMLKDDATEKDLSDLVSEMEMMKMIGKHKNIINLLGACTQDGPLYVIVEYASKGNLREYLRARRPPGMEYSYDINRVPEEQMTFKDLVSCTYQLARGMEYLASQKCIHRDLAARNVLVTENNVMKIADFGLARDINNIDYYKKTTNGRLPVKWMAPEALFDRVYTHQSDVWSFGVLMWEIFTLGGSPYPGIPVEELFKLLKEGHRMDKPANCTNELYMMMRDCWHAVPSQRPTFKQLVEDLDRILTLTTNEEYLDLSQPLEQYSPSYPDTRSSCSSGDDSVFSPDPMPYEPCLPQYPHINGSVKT
UniProt P22607, whole entry, looked up: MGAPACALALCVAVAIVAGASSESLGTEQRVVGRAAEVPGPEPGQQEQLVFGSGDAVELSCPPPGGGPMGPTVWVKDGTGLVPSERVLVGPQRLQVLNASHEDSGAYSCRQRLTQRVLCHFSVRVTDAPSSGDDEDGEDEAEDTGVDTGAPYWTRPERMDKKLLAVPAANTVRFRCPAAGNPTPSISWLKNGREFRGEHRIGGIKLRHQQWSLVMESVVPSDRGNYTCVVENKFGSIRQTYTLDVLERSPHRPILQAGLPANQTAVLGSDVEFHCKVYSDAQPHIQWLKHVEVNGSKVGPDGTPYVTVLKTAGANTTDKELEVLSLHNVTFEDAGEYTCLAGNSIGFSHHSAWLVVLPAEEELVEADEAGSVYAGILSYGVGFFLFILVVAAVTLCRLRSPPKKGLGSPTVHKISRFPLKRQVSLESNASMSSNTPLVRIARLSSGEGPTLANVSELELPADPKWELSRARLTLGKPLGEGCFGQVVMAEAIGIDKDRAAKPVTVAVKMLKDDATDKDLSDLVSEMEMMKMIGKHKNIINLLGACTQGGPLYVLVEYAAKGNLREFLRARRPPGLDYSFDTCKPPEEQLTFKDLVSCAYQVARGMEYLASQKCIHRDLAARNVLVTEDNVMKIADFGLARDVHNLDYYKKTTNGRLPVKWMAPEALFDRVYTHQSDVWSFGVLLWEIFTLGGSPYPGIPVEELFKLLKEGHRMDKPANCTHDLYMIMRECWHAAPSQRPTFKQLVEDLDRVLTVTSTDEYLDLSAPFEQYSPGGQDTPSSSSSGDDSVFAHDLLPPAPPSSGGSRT

What was measured:
Test in all cases: number of time points (of 5) at which kinase-Nluc abundance scored as decreased, DMSO-normalised (count); higher = more persistent destabilization
Conditions in all cases: K562; 2-18 h
[1] = biological target: CSNK1A1 (UniProt P48729)
[2] = biological target: CSNK1D (UniProt P48730)
[3] = biological target: DDR1 (UniProt Q08345)
[4] = biological target: DYRK1B (UniProt Q9Y463)
[5] = biological target: DYRK2 (UniProt Q92630)
[6] = biological target: EGFR (UniProt P00533)
[7] = biological target: EGFR_G719S (UniProt P00533)
[8] = biological target: EGFR_G719S_T790M (UniProt P00533)
[9] = biological target: EGFR_L718V (UniProt P00533)
[10] = biological target: EGFR_L858R (UniProt P00533)
[11] = biological target: EGFR_L861Q (UniProt P00533)
[12] = biological target: EGFR_T790M (UniProt P00533)
[13] = biological target: EPHA2 (UniProt P29317)
[14] = biological target: ERBB3 (UniProt P21860)
[15] = biological target: ERBB4_R711C (clone: ERBB4_mut) (UniProt Q15303)
[16] = biological target: ERN1 (UniProt O75460)
[17] = biological target: FGFR1 (UniProt P11362)
[18] = biological target: FGFR2 (UniProt P21802)
[19] = biological target: FGFR3 (UniProt P22607)
[20] = biological target: FGR (UniProt P09769)

Measured: number of time points

Nc1ccc(Sc2nc3ccccc3s2)c(Cl)c1 [KRAS inhibitor-9] (10 µM)
0: all assays above

O=C(O)c1c[nH]c2cc(Cl)c(-c3ccc(C4(O)CCC4)cc3)cc12 (10 µM)
0: all assays above

CC(C)n1cnc2c(Nc3cccc(Cl)c3)nc(N[C@H]3CCCC[C@@H]3N)nc21 (2.5 µM)
0: all assays above

COc1cc(N2CCC(O)CC2)ccc1Nc1nc(Nc2ccccc2S(=O)(=O)C(C)C)c2[nH]cnc2n1 (10 µM)
0: all assays above

O=c1cc(N2CCOCC2)oc2c(-c3cccc4c3sc3ccccc34)cccc12 (10 µM)
0: all assays above

CCC[C@H](C)Oc1nc(N)c2[nH]c(=O)n(CCCCCN3CCCCC3)c2n1 (10 µM)
0: all assays above

CCn1c(N)c(C(=O)NC)c(=O)c2ccc(C#CC(C)(O)COC)nc21 (stereo not given) (10 µM)
0: all assays above

Fc1ccc(Cl)cc1-c1nc(Nc2ccncc2)c2nccnc2n1 (10 µM)
0: all assays above

Cc1ccc(Nc2cc(N[C@@H]3CCCC[C@@H]3N)nnc2C(N)=O)nc1C (2 µM)
0: all assays above

CN1C(=O)[C@@H](NC(=O)c2cc(Cc3ccccc3)on2)COc2ccccc21 (10 µM)
0: all assays above

CC(C)c1cc2c(c(O)c1O)[C@@]13CCCC(C)(C)[C@@H]1C[C@@H]2OC3=O [Carnosol] (2.5 µM)
0: all assays above

CCOc1cc(=O)[nH]cc1-c1ccc(CC(=O)Nc2cc(C(C)(C)C(F)(F)F)on2)c(F)c1 (10 µM)
0: all assays above

By substructure: those above with fluorine.
Fc1ccc(Cl)cc1-c1nc(Nc2ccncc2)c2nccnc2n1 (10 µM)
0: all assays above

CCOc1cc(=O)[nH]cc1-c1ccc(CC(=O)Nc2cc(C(C)(C)C(F)(F)F)on2)c(F)c1 (10 µM)
0: all assays above

The results go on:

Cc1cc2c(F)c(Oc3ncnn4cc(OC[C@@H](C)OC(=O)[C@H](C)N)c(C)c34)ccc2[nH]1 [Brivanib (alaninate)] (10 µM)
0: all assays above

CCCCNc1ncc2c(-c3ccc(F)cc3)nn(CC3CCC(N)CC3)c2n1 (stereo not given) (2.5 µM)
4: [5]
0: all other assays above

CN1CCN(c2ccc(-c3ccncc3-c3cc(F)c(O)c(F)c3)cc2)CC1 (10 µM)
0: all assays above

CS(=O)(=O)c1ccc([C@@H](CC2CCCC2)C(=O)Nc2nccs2)cc1 (10 µM)
0: all assays above

Cc1cc(N2CCOCC2)ccc1Nc1nc(NC2CCCCC2)c2[nH]cnc2n1 (10 µM)
0: all assays above

CN1CCN(Cc2ccc(-c3cn(C4CCC(O)CC4)c4nc(NCCC5CC5)ncc34)cc2)CC1 (stereo not given) (2.5 µM)
2: [7] | [11] | [18]
1: [8] | [13]
3: [3]
4: [5]
0: all other assays above

O=CN1CCN(c2ccc(C=C3C(=O)Nc4ccccc43)cc2)CC1 (10 µM)
0: all assays above

CO[C@]1(C(=O)N[C@@H](C)c2ccc(-n3cc(F)cn3)nc2)CC[C@H](c2nc(C)cc(Nc3cc(C)[nH]n3)n2)CC1 [Pralsetinib] (10 µM)
5: [3]
1: [15]
3: [5]
0: all other assays above

COc1cc2nc(-c3cc(F)ccc3O)nc(N[C@@H]3CNC[C@H]3C(C)(C)O)c2cc1OC (2.5 µM)
0: all assays above

S=C(NCc1ccc2c(c1)OCO2)N1CCN(c2ncnc3c2oc2ccccc23)CC1 [Amuvatinib] (2.5 µM)
0: all assays above

CO/N=C1/C(c2c(O)[nH]c3cc(Cl)c(Cl)cc23)=Nc2ccccc21 (10 µM)
0: all assays above

Cc1cnc(Nc2ccc(F)cc2Cl)nc1-c1c[nH]c(C(=O)N[C@H](CO)c2cccc(Cl)c2)c1 (10 µM)
0: all assays above

CN(C)c1cc[n+](Cc2ccc(OCCOc3ccc(C[n+]4ccc(N(C)C)cc4)cc3)cc2)cc1 (10 µM)
0: all assays above

Cc1n[nH]c2ncc(C(=O)N3CCC[C@H]3c3ccc(Cl)cc3)cc12 (10 µM)
0: all assays above

Cc1nc2c(NCc3cccc(S(C)(=O)=O)c3)nccn2c1-c1ccc(O)c(F)c1 (10 µM)
0: all assays above

CC(C)Cn1ncc2cc(Oc3ccc(F)cc3F)c(C(=O)NCCN(C)C)cc21 [p38α inhibitor 1] (10 µM)
0: all assays above

CC(C)=CCC[C@](C)(O[C@@H]1O[C@H](CO[C@@H]2O[C@H](CO)[C@@H](O)[C@H](O)[C@H]2O)[C@@H](O)[C@H](O)[C@H]1O)[C@H]1CC[C@]2(C)[C@@H]1[C@H](O)C[C@@H]1[C@@]3(C)CC[C@H](O[C@@H]4O[C@H](CO)[C@@H](O)[C@H](O)[C@H]4O[C@@H]4O[C@H](CO)[C@@H](O)[C@H](O)[C@H]4O)C(C)(C)[C@@H]3CC[C@]12C [Ginsenoside Rb1] (10 µM)
0: all assays above

CC(C)(Oc1ccc(Cl)cc1)C(=O)Nc1ccc(OCc2ccc(C#N)cc2)cc1 [AMPK activator 4] (10 µM)
0: all assays above

COc1ccc(CCNCc2ccc(OCc3ccc(Cl)nc3)c(OC)c2)cc1OC [SBE13 (Hydrochloride)] (10 µM)
0: all assays above

O=C(Nc1ccc(Cl)cc1)C1CN(C(=O)c2cccc(-c3ccco3)c2)CC(F)(F)C1 (stereo not given) (2.5 µM)
0: all assays above

CCNC(=O)Nc1ccc(-c2nc3c(c(N4CCOC[C@@H]4C)n2)CCN(C2COC2)C3)cc1 (2.5 µM)
5: [3]
1: [15]
0: all other assays above

CCc1c(C(=O)NNC(=O)[C@H](O)c2cc(F)cc(F)c2)ccc(O)c1C (10 µM)
0: all assays above

Cc1cccc(CC(=O)N2CCc3c2ccc(-c2cn(C)c4ncnc(N)c24)c3F)n1 (10 µM)
0: all assays above

O=C(CCl)c1c[nH]c2ccccc12 (2.5 µM)
0: all assays above

NC(=O)c1c(NC(=O)C2CC2)sc2c1CCCC2 (10 µM)
0: all assays above

CCC(F)(F)c1cc(N2CCC(S(C)(=O)=O)CC2)nc2sc(C(N)=O)c(N)c12 (10 µM)
0: all assays above

Cc1nc(NC(=O)N2CCC[C@H]2C(N)=O)sc1-c1ccnc(C(C)(C)C(F)(F)F)c1 [Alpelisib] (2.5 µM)
0: all assays above

N#Cc1cc(-c2ccnc(Nc3ccc(N4CCOCC4)cc3)n2)ccc1OC1CCOCC1 (10 µM)
4: [1]
2: [6]
0: all other assays above

CC1=CC(=O)C(C(C)C)=C/C1=N/OC(=O)c1ccccc1C [Poloxin] (2.5 µM)
0: all assays above

CNc1cc2c(Nc3cccc(Br)c3)ncnc2cn1 (10 µM)
1: [16]
0: all other assays above

N#CC(=C(/N)Sc1ccccc1N)/C(C#N)=C(\N)Sc1ccccc1N (10 µM)
0: all assays above

CN(C)CCn1cc2cc(NC(=O)c3cccc(C(F)(F)F)n3)c(C(C)(C)O)cc2n1 (10 µM)
0: all assays above

COCCNc1cc(NC(=O)N2CCCc3cc(CN4CCOCC4=O)c(C=O)nc32)ncc1C#N (10 µM)
0: all assays above

COc1cc2nccc(Nc3cccc(Oc4ccccc4)c3)c2cc1OC (2.5 µM)
0: all assays above

CCOC(=O)c1c(Nc2ccccc2Cl)oc(/C=C2\C=Nc3ncccc32)c1O (10 µM)
0: all assays above

CNC(=O)CN1CCC(Oc2cc3c(Nc4cccc(Cl)c4F)ncnc3cc2OC)CC1 [Sapitinib] (10 µM)
0: all assays above

Cc1ccc2c(NS(=O)(=O)c3ccccc3Cl)cccc2c1Oc1ncccc1-c1ccnc(N[C@H]2CCCNC2)n1 (2.5 µM)
0: all assays above
